# Some of the results follow.
# B1: Agalectin (Anopheles gambiae) (protein)
# chain: MSNRPFTAKFPRYPENGDEVFIRGKLKDDAKSFSVNFCLPRPAQVAEHQTPPYIALHFKTIYDERDDTSRVVLNWKNLQWQQEEVLDNYWHVDRSQTFRVVFRLHEDCIKVFVNSVDHPPDYQFPVQLPLDQIESIELWDDVEHVEEISFRYDNGNSY
# Columns and labels:
# Experiment in all cases: glycan array binding signal (z-score within array); higher = stronger binding
# Conditions in all cases: glycan notation: IUPAC condensed, linker removed
# Gal6S(b1-4)Glc6S = target: Gal6S(b1-4)Glc6S
# In short: (§1)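 Columns mapping to the same glycan were averaged after glycan names were converted to IUPAC-condensed notation. The data come from 3228 arrays in the Consortium for Functional Glycomics database, limited to those with an available protein sequence. Binding is reported as a within-array Z-score averaged across arrays of one protein sequence and across linkers.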
# Gal6S(b1-4)GlcNAc = target: Gal6S(b1-4)GlcNAc
# In short: as §1
# Gal6S(b1-4)GlcNAc6S = target: Gal6S(b1-4)GlcNAc6S
# In short: as §1
# GalNAc(a1-3)Gal = target: GalNAc(a1-3)Gal
# In short: as §1
# GalNAc(a1-3)GalNAc = target: GalNAc(a1-3)GalNAc
# In short: as §1
# [1] = target: GalNAc(a1-3)GalNAc(b1-3)Gal(a1-4)Gal(b1-4)Glc
# In short: as §1
# [2] = target: GalNAc(a1-3)GalNAc(b1-3)Gal(a1-4)Gal(b1-4)GlcNAc
# In short: as §1
# GalNAc(b1-3)Gal = target: GalNAc(b1-3)Gal
# In short: as §1
# [3] = target: GalNAc(b1-3)Gal(a1-4)Gal(b1-4)GlcNAc
# In short: as §1
# [4] = target: GalNAc(b1-3)Gal(a1-4)Gal(b1-4)GlcNAc(b1-3)Gal(b1-4)Glc
# In short: as §1
# [5] = target: GalNAc(b1-3)Gal(a1-6)Gal(b1-4)Glc
# In short: as §1
# GalNAc(b1-3)GalNAc = target: GalNAc(b1-3)GalNAc
# In short: as §1
# GalNAc(b1-3)GlcNAc = target: GalNAc(b1-3)GlcNAc
# In short: as §1
# GalNAc(b1-4)Gal(b1-4)Glc = target: GalNAc(b1-4)Gal(b1-4)Glc
# In short: as §1
# GalNAc(b1-4)GlcNAc = target: GalNAc(b1-4)GlcNAc
# In short: as §1
# [6] = target: GalNAc(b1-4)GlcNAc(b1-2)Man
# In short: as §1
# [7] = target: GalNAc(b1-4)GlcNAc(b1-2)Man(a1-3)[GalNAc(b1-4)GlcNAc(b1-2)Man(a1-6)]Man(b1-4)GlcNAc(b1-4)GlcNAc
# In short: as §1
# [8] = target: GalNAc(b1-4)GlcNAc(b1-3)GalNAc(b1-4)GlcNAc
# In short: as §1
# GalNAc(b1-4)GlcNAc6S = target: GalNAc(b1-4)GlcNAc6S
# In short: as §1
# GalNAc(b1-6)GalNAc = target: GalNAc(b1-6)GalNAc
# In short: as §1
# GalNAc3S(b1-4)GlcNAc = target: GalNAc3S(b1-4)GlcNAc
# In short: as §1
# GalNAc3S(b1-4)GlcNAc3S = target: GalNAc3S(b1-4)GlcNAc3S
# In short: as §1
# [9] = target: GalNAc3S(b1-4)[Fuc(a1-3)]GlcNAc
# In short: as §1
# GalNAc4S6S(b1-4)GlcNAc = target: GalNAc4S6S(b1-4)GlcNAc
# In short: as §1
# GalNAc6S(b1-4)GlcNAc = target: GalNAc6S(b1-4)GlcNAc
# In short: as §1
# Glc(a1-4)Glc = target: Glc(a1-4)Glc
# In short: as §1
# [10] = target: Glc(a1-4)Glc(a1-4)Glc(a1-4)Glc
# In short: as §1
# Glc(a1-6)Glc(a1-6)Glc = target: Glc(a1-6)Glc(a1-6)Glc
# In short: as §1
# [11] = target: Glc(a1-6)Glc(a1-6)Glc(a1-6)Glc
# In short: as §1
# Glc(b1-4)Glc = target: Glc(b1-4)Glc
# In short: as §1
# Glc(b1-6)Glc = target: Glc(b1-6)Glc
# In short: as §1
# GlcA(b1-3)Gal = target: GlcA(b1-3)Gal
# In short: as §1
# GlcA(b1-3)GlcNAc = target: GlcA(b1-3)GlcNAc
# In short: as §1
# GlcA(b1-6)Gal = target: GlcA(b1-6)Gal
# In short: as §1
# [12] = target: GlcA3S(b1-3)Gal(b1-4)GlcNAc(b1-2)Man
# In short: as §1
# [13] = target: GlcA3S(b1-3)Gal(b1-4)GlcNAc(b1-3)Gal(b1-4)Glc
# In short: as §1
# [14] = target: GlcNAc(a1-3)Gal(b1-4)GlcNAc
# In short: as §1
# [15] = target: GlcNAc(a1-4)Gal(b1-3)GlcNAc
# In short: as §1
# [16] = target: GlcNAc(a1-4)Gal(b1-4)GalNAc
# In short: as §1
# [17] = target: GlcNAc(a1-4)Gal(b1-4)GlcNAc
# In short: as §1
# [18] = target: GlcNAc(a1-4)Gal(b1-4)GlcNAc(b1-3)Gal(b1-4)Glc
# In short: as §1
# [19] = target: GlcNAc(a1-4)Gal(b1-4)GlcNAc(b1-3)Gal(b1-4)GlcNAc
# In short: as §1
# [20] = target: GlcNAc(a1-4)Gal(b1-4)GlcNAc(b1-3)Gal(b1-4)GlcNAc(b1-3)Gal(b1-4)GlcNAc
# In short: as §1
# [21] = target: GlcNAc(a1-4)Gal(b1-4)GlcNAc(b1-3)Gal(b1-4)[Fuc(a1-3)]GlcNAc(b1-3)Gal(b1-4)[Fuc(a1-3)]GlcNAc
# In short: as §1
# [22] = target: GlcNAc(a1-6)Gal(b1-4)GlcNAc
# In short: as §1
binder,measurement,setting,value
B1,glycan array binding signal (z-score),Gal6S(b1-4)Glc6S,-0.386
same,glycan array binding signal (z-score),Gal6S(b1-4)GlcNAc,-0.987
same,glycan array binding signal (z-score),Gal6S(b1-4)GlcNAc6S,0.075
same,glycan array binding signal (z-score),GalNAc(a1-3)Gal,-0.221
same,glycan array binding signal (z-score),GalNAc(a1-3)GalNAc,-0.555
same,glycan array binding signal (z-score),[1],-0.618
same,glycan array binding signal (z-score),[2],-0.519
same,glycan array binding signal (z-score),GalNAc(b1-3)Gal,-0.678
same,glycan array binding signal (z-score),[3],0.942
same,glycan array binding signal (z-score),[4],0.038
same,glycan array binding signal (z-score),[5],-0.579
same,glycan array binding signal (z-score),GalNAc(b1-3)GalNAc,-1.04
same,glycan array binding signal (z-score),GalNAc(b1-3)GlcNAc,-0.481
same,glycan array binding signal (z-score),GalNAc(b1-4)Gal(b1-4)Glc,0.475
same,glycan array binding signal (z-score),GalNAc(b1-4)GlcNAc,-0.111
same,glycan array binding signal (z-score),[6],0.499
same,glycan array binding signal (z-score),[7],0.904
same,glycan array binding signal (z-score),[8],-0.073
same,glycan array binding signal (z-score),GalNAc(b1-4)GlcNAc6S,0.355
same,glycan array binding signal (z-score),GalNAc(b1-6)GalNAc,-0.561
same,glycan array binding signal (z-score),GalNAc3S(b1-4)GlcNAc,-0.095
same,glycan array binding signal (z-score),GalNAc3S(b1-4)GlcNAc3S,-0.229
same,glycan array binding signal (z-score),[9],-0.78
same,glycan array binding signal (z-score),GalNAc4S6S(b1-4)GlcNAc,-0.181
same,glycan array binding signal (z-score),GalNAc6S(b1-4)GlcNAc,-0.949
same,glycan array binding signal (z-score),Glc(a1-4)Glc,-0.276
same,glycan array binding signal (z-score),[10],0.224
same,glycan array binding signal (z-score),Glc(a1-6)Glc(a1-6)Glc,-0.568
same,glycan array binding signal (z-score),[11],-0.328
same,glycan array binding signal (z-score),Glc(b1-4)Glc,-0.613
same,glycan array binding signal (z-score),Glc(b1-6)Glc,-1.13
same,glycan array binding signal (z-score),GlcA(b1-3)Gal,0.648
same,glycan array binding signal (z-score),GlcA(b1-3)GlcNAc,-0.954
same,glycan array binding signal (z-score),GlcA(b1-6)Gal,-1.35
same,glycan array binding signal (z-score),[12],-0.57
same,glycan array binding signal (z-score),[13],-0.94
same,glycan array binding signal (z-score),[14],-0.001
same,glycan array binding signal (z-score),[15],0.451
same,glycan array binding signal (z-score),[16],-0.858
same,glycan array binding signal (z-score),[17],0.21
same,glycan array binding signal (z-score),[18],-0.151
same,glycan array binding signal (z-score),[19],0.762
same,glycan array binding signal (z-score),[20],-0.12
same,glycan array binding signal (z-score),[21],0.91
same,glycan array binding signal (z-score),[22],-1.22

# Part of the list above, bar-delimited:
binder | measurement | setting | value
B1 | glycan array binding signal (z-score) | GalNAc6S(b1-4)GlcNAc | -0.949
same | glycan array binding signal (z-score) | Glc(a1-4)Glc | -0.276
same | glycan array binding signal (z-score) | [10] | 0.224

# — the supplement of paper PMC8728848
